Experimental data from PMC12440826, “Shigella flexneri evades LPS ubiquitylation through IpaH1.4-mediated degradation of RNF213” (Nature Structural & Molecular Biology, 2025).
Results are given in words; binding and its absence hold for the method and conditions named. In cells and extracts the contact can be indirect. A result given as binding can be weak or reduced; the word gives no strength.

Chains of the proteins cited; added tags and fusions are not shown.
UniProt Q63HN8: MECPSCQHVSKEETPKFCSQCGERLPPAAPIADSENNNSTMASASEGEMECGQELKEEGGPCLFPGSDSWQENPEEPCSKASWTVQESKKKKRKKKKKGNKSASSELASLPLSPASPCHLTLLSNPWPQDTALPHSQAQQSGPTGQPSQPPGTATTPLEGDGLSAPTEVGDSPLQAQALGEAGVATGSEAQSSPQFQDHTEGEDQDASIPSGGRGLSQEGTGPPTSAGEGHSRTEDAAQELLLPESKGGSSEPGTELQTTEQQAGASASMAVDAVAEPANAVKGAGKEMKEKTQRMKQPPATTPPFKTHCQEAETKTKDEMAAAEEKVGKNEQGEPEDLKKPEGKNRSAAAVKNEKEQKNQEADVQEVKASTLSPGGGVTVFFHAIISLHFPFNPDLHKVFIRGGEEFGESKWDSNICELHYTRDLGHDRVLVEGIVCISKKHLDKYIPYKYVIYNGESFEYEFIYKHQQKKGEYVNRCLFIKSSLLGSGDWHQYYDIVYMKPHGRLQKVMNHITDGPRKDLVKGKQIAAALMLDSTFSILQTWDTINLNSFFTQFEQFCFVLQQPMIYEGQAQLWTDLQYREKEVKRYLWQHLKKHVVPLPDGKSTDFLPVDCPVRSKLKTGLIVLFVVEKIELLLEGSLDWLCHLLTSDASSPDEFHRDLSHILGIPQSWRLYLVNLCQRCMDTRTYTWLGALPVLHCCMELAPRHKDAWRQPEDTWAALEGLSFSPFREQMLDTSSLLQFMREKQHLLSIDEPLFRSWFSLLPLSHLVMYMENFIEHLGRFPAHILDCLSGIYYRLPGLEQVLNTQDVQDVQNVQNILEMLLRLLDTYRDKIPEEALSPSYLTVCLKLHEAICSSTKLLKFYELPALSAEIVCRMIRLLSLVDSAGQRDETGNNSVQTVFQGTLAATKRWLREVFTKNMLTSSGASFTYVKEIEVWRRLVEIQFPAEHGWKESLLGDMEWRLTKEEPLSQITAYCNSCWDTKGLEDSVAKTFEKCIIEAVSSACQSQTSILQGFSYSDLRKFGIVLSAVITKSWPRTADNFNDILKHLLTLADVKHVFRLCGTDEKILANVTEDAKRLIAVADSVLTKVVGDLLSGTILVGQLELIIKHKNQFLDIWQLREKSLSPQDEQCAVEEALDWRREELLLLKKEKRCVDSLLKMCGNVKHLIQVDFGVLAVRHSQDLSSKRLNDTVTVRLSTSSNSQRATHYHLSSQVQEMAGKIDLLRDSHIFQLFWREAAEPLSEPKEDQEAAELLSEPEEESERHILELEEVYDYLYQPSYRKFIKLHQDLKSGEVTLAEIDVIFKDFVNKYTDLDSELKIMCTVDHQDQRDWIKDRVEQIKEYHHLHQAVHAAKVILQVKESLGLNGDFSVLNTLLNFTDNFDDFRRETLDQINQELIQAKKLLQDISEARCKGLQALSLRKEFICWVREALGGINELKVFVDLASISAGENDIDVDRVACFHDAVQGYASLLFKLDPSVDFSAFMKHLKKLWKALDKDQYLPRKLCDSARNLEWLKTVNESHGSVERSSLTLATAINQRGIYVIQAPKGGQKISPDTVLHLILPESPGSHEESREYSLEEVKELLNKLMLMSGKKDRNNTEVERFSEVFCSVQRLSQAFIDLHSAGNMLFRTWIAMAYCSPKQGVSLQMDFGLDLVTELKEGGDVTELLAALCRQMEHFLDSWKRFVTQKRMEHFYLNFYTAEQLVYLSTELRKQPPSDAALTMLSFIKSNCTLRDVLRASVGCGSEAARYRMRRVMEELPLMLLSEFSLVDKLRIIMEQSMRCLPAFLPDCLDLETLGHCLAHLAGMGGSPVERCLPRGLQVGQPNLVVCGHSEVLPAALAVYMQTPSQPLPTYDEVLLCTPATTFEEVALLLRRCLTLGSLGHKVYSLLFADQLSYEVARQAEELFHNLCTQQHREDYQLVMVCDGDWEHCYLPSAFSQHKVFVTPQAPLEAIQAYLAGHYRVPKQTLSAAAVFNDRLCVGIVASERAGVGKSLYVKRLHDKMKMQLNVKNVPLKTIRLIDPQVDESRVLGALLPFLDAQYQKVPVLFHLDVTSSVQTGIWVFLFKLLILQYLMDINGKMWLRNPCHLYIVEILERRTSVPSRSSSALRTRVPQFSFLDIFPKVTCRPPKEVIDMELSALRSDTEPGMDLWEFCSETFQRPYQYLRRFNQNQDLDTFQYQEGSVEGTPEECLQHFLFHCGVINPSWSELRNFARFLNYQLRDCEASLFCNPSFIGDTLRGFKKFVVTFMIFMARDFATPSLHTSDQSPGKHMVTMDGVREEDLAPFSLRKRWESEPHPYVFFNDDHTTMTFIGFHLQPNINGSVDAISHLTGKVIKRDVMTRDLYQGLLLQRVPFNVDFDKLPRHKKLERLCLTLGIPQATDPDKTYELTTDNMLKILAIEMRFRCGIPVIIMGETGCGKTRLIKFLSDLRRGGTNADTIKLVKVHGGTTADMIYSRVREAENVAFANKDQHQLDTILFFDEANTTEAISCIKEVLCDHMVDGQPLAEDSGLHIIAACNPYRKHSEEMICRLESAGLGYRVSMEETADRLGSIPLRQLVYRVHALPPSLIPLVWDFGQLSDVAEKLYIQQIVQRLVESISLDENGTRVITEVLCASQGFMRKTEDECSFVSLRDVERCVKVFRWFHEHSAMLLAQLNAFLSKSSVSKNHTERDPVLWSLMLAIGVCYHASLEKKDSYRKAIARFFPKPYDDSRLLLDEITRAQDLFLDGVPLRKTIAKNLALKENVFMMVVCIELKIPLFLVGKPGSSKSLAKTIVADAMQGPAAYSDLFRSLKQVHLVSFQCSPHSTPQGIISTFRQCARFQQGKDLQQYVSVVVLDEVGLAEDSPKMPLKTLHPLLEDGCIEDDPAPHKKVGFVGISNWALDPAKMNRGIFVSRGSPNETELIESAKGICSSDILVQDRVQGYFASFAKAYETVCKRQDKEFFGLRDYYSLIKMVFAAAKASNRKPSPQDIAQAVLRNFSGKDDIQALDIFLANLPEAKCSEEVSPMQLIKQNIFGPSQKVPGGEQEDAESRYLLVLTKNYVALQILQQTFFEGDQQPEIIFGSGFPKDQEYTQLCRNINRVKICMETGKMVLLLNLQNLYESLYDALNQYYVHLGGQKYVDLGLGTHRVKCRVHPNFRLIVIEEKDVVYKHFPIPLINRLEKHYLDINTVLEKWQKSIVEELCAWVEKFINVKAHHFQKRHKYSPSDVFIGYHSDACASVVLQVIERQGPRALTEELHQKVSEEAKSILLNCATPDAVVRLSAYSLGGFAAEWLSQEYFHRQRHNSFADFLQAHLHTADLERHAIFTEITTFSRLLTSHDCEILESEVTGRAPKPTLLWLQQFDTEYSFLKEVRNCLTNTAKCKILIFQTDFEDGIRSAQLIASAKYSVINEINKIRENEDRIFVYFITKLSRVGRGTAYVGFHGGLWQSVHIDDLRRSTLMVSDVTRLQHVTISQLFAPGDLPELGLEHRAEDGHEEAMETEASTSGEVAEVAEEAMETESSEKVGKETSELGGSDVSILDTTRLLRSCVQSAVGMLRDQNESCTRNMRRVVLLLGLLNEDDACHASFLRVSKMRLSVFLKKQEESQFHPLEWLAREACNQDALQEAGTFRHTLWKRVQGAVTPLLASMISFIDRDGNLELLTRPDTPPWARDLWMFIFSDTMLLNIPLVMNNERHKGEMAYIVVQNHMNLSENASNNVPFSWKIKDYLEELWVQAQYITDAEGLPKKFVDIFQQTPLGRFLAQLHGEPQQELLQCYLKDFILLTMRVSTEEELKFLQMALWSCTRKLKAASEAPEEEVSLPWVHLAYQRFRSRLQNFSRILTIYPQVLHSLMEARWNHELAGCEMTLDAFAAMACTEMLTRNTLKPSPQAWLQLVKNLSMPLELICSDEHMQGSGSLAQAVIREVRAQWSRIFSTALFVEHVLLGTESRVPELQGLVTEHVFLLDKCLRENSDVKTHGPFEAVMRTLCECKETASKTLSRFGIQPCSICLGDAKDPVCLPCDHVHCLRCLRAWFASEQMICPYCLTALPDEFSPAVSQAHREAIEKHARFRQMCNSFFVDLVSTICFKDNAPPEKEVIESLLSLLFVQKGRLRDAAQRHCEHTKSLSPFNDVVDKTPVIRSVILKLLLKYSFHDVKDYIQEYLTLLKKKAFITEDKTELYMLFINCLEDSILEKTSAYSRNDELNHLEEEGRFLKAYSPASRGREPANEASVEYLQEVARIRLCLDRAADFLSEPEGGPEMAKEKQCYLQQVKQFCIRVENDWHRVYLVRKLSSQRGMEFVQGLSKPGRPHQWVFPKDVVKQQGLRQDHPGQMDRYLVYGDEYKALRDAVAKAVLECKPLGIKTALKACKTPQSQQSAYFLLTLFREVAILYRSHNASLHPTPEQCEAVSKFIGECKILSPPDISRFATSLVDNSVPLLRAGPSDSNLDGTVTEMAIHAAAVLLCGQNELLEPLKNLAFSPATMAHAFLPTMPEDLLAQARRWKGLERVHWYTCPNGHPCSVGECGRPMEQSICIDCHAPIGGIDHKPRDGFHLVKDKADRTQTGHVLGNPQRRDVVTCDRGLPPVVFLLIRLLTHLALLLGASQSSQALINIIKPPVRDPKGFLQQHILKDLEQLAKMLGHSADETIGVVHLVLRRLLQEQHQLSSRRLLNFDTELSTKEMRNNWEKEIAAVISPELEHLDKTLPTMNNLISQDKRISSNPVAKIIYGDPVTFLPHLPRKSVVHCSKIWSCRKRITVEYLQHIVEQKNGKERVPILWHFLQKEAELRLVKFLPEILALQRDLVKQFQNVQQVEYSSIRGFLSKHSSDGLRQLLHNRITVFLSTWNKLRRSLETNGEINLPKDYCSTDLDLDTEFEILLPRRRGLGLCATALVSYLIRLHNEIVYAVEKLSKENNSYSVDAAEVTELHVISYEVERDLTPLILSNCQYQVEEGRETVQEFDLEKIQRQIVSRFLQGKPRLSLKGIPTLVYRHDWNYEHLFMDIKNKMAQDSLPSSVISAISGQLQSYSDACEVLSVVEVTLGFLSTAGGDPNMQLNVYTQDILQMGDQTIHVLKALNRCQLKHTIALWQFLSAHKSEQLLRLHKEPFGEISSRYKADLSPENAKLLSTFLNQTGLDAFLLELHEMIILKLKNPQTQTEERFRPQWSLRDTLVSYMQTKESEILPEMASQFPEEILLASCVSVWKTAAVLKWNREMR

Biological target: GST–IpaH1.4 (WT, for the binding-mutant pull-downs) (S. flexneri)
Assay: pull-down; bacterial lysate with overexpressed GST–IpaH1.4 (WT or binding mutants) applied to GST–Sepharose resin; 293ET lysates with Flag–GFP–RNF213 (WT or binding mutants); washed beads boiled in Laemmli buffer, immunoblot

Substance: Flag–GFP–RNF213 (WT) (from UniProt Q63HN8 1-5207) (enzyme)
- binding: binds
